In the supplement of paper PMC10338343:
± gives the standard deviation. The list shows a part of the results. Many of these values have a large error.

The sequences below were run on EfPiwi piRISC loaded with L1MC piRNA (26 nt) (assay: pre-steady-state target cleavage rate (min^-1); guide: L1MC piRNA 5'p-UAACUAAAUACUAUGCAAGCUGUAGG; MIWI and MILI are mouse PIWI proteins and EfPiwi is from a freshwater sponge; tags in brackets are library labels; higher = faster piRNA-guided slicing of the target). Settings: auxiliary factor: 500 nM Ephydatia muelleri Gtsf1.
Experimental: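 Cleave-'n-Seq: a library of target RNAs (target site in constant flanks) at […] was incubated with 1 nM active freshwater sponge Ephydatia fluviatilis Piwi piRISC (synthetic 5'-monophosphorylated piRNA guide) with or without 500 nM EmGtsf1 at 33 °C for 1 min to 16 h. Uncleaved targets were sequenced and the pooled three trials fitted to a burst-and-steady-state model to give the pre-steady-state cleavage rate (min^-1). Sequence is the target site only. Fits with R² ≤ 0 are excluded.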

Row | Sequence | pre-steady-state target cleavage rate
1 | UCCUGGUACAGCUUGCAAUGUAUUUAGUUA | 0.000641 ± 0.0075
2 | UCCUGGAUGUGCUUGCAUAGGAUUUAGUUA | 0.000624 ± 0.0053
3 | UCCUGGAUGUCGUUGCAUAGUAUUUACAAA | 0.000202 ± 0.031
4 | UCCUGGAACAGCUACGAUAGUAUUUAGUUA | 0.000241 ± 0.017
5 | UCCUGGAUGUGCUUGCAUCGUAUUUAGUUA | 0.00598 ± 0.0028
6 | UCCUGGAUGUCGAUGCAUAGUAUUUAGUA | 0.00117 ± 0.0057
7 | UCCUGGAUGUGCUUGCAAAGAAUUUAGUUA | 0.000288 ± 0.022
8 | UCCUGGAACAGCUUGCAUAGUAUUUAGUUG [g2:g23:cont:t1G] | 0.0115 ± 0.0034
9 | UCCUGGAUGUGCUUGCAUAGUAUUAUCUAA | 0.000488 ± 0.0061
10 | UCCUGGAUGAGCUUUCAUAGUAUUUAGUUA | 0.00433 ± 0.0018
11 | UCCUGCAACAGCUUCCAUAGUAUUUAGUUA | 0.00273 ± 0.0014
12 | UCCUGGAUCAGCUUGCAUAGUAUUAGUUA | 0.00236 ± 0.0031
13 | UCCUGGAUGUGCUUGCUUAGUAUAUAGUUA | 0.00085 ± 0.0086
14 | UCCUGGUACAGCUUGCACUAGUAUUUAGUUA | 0.00323 ± 0.0029
15 | UCCUGCUACAGCUUGGUAAGUAUUUACAAA | 0.000415 ± 0.0087
16 | UCCUGCUACAGCUUGCAUAGUAUAUAGAAA | 0.00298 ± 0.0025
17 | UCCUGGUACAGCUUGCAUACAUUUUAGUUA | 0.000321 ± 0.017
18 | UCCUGCAACAGCUUGCAUAGUAAUUAGUUA | 0.00951 ± 0.0021
19 | UCCUGCUACAGCUUGCAUACUAUUUUGUUA | 0.00432 ± 0.0019
20 | UCCUGGAUGUGCGUUGCAUAGUAUUUAGUUA | 0.00539 ± 0.0024
21 | UCCUGCUACAGCUUGCAUCAGUAUUUAGUUA | 0.00219 ± 0.0025
22 | UCCUGGUACACCUUGCUUAGUAUUUAGUUA | 0.00384 ± 0.0027
23 | UCCUGCUAGCAGCUUGCAUAGUAUUUAGUUA | 0.0598 ± 0.016
24 | UCCUGGAUCAGCUUGCAUAGUUAAUACAAA | 0.00216 ± 0.0042

Same assay, conditions: auxiliary factor: none (no Gtsf1)

Row | Sequence | pre-steady-state target cleavage rate
25 | UCCUGGUACAGCUUGCAAUGUAUUUAGUUA | 0.000683 ± 0.015
26 | UCCUGGAUGUGCUUGCAUAGGAUUUAGUUA | 0.000507 ± 0.019
27 | UCCUGGAUGUCGUUGCAUAGUAUUUACAAA | 0.000238 ± 0.037
28 | UCCUGGAUGUGCUUGCAAAGAAUUUAGUUA | 0.000168 ± 0.063
29 | UCCUGGAACAGCUUGCAUAGUAUUUAGUUG [g2:g23:cont:t1G] | 0.000254 ± 0.018
30 | UCCUGGAUGUGCUUGCAUAGUAUUAUCUAA | 0.000538 ± 0.011
31 | UCCUGGAUGAGCUUUCAUAGUAUUUAGUUA | 0.000517 ± 0.015
32 | UCCUGCAACAGCUUCCAUAGUAUUUAGUUA | 0.000467 ± 0.01
33 | UCCUGGAUGUGCUUGCAUAGUAUUUAGUUG [g2:g20:cont:t1G] | 0.00187 ± 0.0083
34 | UCCUGGAUCAGCUUGCAUAGUAAUUAGAUA | 0.000679 ± 0.011
35 | UCCUGGAUGUGCUUGCUUAGUAUAUAGUUA | 0.000532 ± 0.014
36 | UCCUGCUACAGCUUGGUAAGUAUUUACAAA | 0.000338 ± 0.017
37 | UCCUGCUACAGCUUGCAUACUAUUUUGUUA | 0.000717 ± 0.011
38 | UCCUGGAUGUGCGUUGCAUAGUAUUUAGUUA | 0.000939 ± 0.011
39 | UCCUGCUACAGCUUGCAUCAGUAUUUAGUUA | 0.000648 ± 0.01
40 | UCCUGGAUCAGCUUGCAUAGUUAAUACAAA | 0.000411 ± 0.018
